These are yes or no findings as the source states them, for the method shown. Some entries that bind do so weakly or less than the wild type. Tags and fused reporters may be left off the sequences shown.
Columns and labels:
[1] = target: human PILRα expressed on 293T cells (human) (UniProt Q9UKJ1); experiment: FACS on 293T transfectants (FIG. 5B)
[2] = target: mouse PILRα expressed on 293T cells (mouse) (UniProt Q2YFS3); experiment: FACS on 293T transfectants (FIG. 5B)
[3] = target: human PILRα expressed on 293T cells (human) (UniProt Q9UKJ1); experiment: flow cytometry, transfected 293T cells, PILRα-positive cells gated
[4] = target: mouse PILRα expressed on 293T cells (mouse) (UniProt Q2YFS3); experiment: as above

Amino acid sequences for entries named in this document (tags omitted). A change or cut given only in a name is not applied to a line headed by its entry.
UniProt Q9UKJ1: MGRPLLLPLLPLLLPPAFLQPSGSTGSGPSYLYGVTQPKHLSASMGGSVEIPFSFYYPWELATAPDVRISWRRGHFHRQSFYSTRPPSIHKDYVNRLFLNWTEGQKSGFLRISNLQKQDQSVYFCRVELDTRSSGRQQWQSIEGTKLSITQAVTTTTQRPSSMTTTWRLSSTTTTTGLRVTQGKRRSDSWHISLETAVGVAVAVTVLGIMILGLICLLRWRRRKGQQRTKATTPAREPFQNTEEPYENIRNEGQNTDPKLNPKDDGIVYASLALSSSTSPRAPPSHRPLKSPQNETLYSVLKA
UniProt Q2YFS3: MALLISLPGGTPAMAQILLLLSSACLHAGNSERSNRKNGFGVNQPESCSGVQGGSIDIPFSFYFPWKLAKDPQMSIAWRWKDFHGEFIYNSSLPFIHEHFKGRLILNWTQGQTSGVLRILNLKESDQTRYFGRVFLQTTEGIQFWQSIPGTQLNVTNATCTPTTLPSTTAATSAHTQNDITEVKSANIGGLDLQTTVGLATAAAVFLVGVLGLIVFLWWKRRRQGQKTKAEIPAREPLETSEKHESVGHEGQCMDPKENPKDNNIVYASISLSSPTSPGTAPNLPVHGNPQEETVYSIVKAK

Measured: binding

B1: mCD99-Fc (Fc fusion, mouse, UniProt Q8VCN6 29-137, looked up, not shown: a dimerising Fc or GST)
chain: DDFNLGDALEDPNMKPTPKAPTPKKPSGGFDLEDALPGGGGGGAGEKPGNRPQPDPKPPRPHGDSGGISDSDLADAAGQGGGGAGRRGSGDEGGHGGAGGAEPEGTPQG
modifications: three O-glycans NeuAc1-2Hex1HexNAc1
binds: all assays above
